Experimental data: US9469650B2, “Melampomagnolide B derivatives” (BOARD OF TRUSTEES OF THE UNIVERSITY OF ARKANSAS, priority 2013, dated 2016)
At least one read-out could not be matched to a standard name with certainty.

Tests used:
OVCAR-4 = assay: panel of 60 human tumor cell lines, growth inhibition (Ovarian Cancer); assay type: cell-based
MOLT-4 = assay: panel of 60 human tumor cell lines, growth inhibition (Leukemia)
MDA-MB-435 = assay: panel of 60 human tumor cell lines, growth inhibition (Melanoma)
UACC-62 = assay: as above
U251 = assay: panel of 60 human tumor cell lines, growth inhibition (CNS Cancer)
HCT-15 = assay: panel of 60 human tumor cell lines, growth inhibition (Colon Cancer)
SW-620 = assay: as above
ACHN = assay: panel of 60 human tumor cell lines, growth inhibition (Renal Cancer)
CAKI-1 = assay: as above
MCF7 = assay: panel of 60 human tumor cell lines, growth inhibition (Breast Cancer)
BT-549 = assay: as above; details: BT-549
IGROV1 = assay: panel of 60 human tumor cell lines, growth inhibition (Ovarian Cancer); details: IGROVI
OVCAR-8 = assay: as above
NCI/ADR-RES = assay: as above
SK-OV-3 = assay: as above
DU-145 = assay: panel of 60 human tumor cell lines, growth inhibition (Prostate Cancer)
HOP-92 = assay: panel of 60 human tumor cell lines, growth inhibition (Non-Small Cell Lung Cancer)
NCI-H226 = assay: as above
NCI-H23 = assay: as above
NCI-H460 = assay: as above
NCI-H522 = assay: as above

C=C1C(=O)O[C@H]2[C@H]1CC/C(COC(=O)Nc1n[nH]c(SC)n1)=C\CC[C@@]1(C)O[C@@H]21 [JVM 64, ((1aR,7aS,10aS,10bS,E)-1a-methyl-8-methylene-9-oxo-1a,2,3,6,7,7a,8,9,10a,10b-decahydrooxireno[2′,3′:9,10]cyclodeca[1,2-b]furan-5-yl)methyl-(5-(methylthio)-1H-1,2,4-triazol-3-yl)carbamate]
Percent Growth (OVCAR-4; Log10 Concentration −4.0): −70%
Percent Growth (OVCAR-4; Log10 Concentration −5.0): 28%
Percent Growth (OVCAR-4; Log10 Concentration −6.0): 73%
Percent Growth (OVCAR-4; Log10 Concentration −7.0): 89%
Percent Growth (OVCAR-4; Log10 Concentration −8.0): 89%
Percent Growth (MOLT-4; Log10 Concentration −4.0): −52%
Percent Growth (MOLT-4; Log10 Concentration −5.0): −20%
Percent Growth (MOLT-4; Log10 Concentration −6.0): 90%
Percent Growth (MOLT-4; Log10 Concentration −7.0): 106%
Percent Growth (MOLT-4; Log10 Concentration −8.0): 104%
Percent Growth (MDA-MB-435; Log10 Concentration −4.0): −55%
Percent Growth (MDA-MB-435; Log10 Concentration −5.0): −15%
Percent Growth (MDA-MB-435; Log10 Concentration −6.0): 65%
Percent Growth (MDA-MB-435; Log10 Concentration −7.0): 99%
Percent Growth (MDA-MB-435; Log10 Concentration −8.0): 97%
Percent Growth (UACC-62; Log10 Concentration −4.0): −89%
Percent Growth (UACC-62; Log10 Concentration −5.0): −42%
Percent Growth (UACC-62; Log10 Concentration −6.0): 74%
Percent Growth (UACC-62; Log10 Concentration −7.0): 94%
Percent Growth (UACC-62; Log10 Concentration −8.0): 96%
Percent Growth (U251; Log10 Concentration −4.0): −79%
Percent Growth (U251; Log10 Concentration −5.0): 20%
Percent Growth (U251; Log10 Concentration −6.0): 68%
Percent Growth (U251; Log10 Concentration −7.0): 92%
Percent Growth (U251; Log10 Concentration −8.0): 98%
Percent Growth (HCT-15; Log10 Concentration −4.0): −84%
Percent Growth (HCT-15; Log10 Concentration −5.0): −4%
Percent Growth (HCT-15; Log10 Concentration −6.0): 133%
Percent Growth (HCT-15; Log10 Concentration −7.0): 94%
Percent Growth (HCT-15; Log10 Concentration −8.0): 100%
Percent Growth (SW-620; Log10 Concentration −4.0): −75%
Percent Growth (SW-620; Log10 Concentration −5.0): −58%
Percent Growth (SW-620; Log10 Concentration −6.0): 56%
Percent Growth (SW-620; Log10 Concentration −7.0): 99%
Percent Growth (SW-620; Log10 Concentration −8.0): 99%
Percent Growth (ACHN; Log10 Concentration −4.0): −95%
Percent Growth (ACHN; Log10 Concentration −5.0): −35%
Percent Growth (ACHN; Log10 Concentration −6.0): 77%
Percent Growth (ACHN; Log10 Concentration −7.0): 98%
Percent Growth (ACHN; Log10 Concentration −8.0): 102%
Percent Growth (CAKI-1; Log10 Concentration −4.0): −77%
Percent Growth (CAKI-1; Log10 Concentration −5.0): −15%
Percent Growth (CAKI-1; Log10 Concentration −6.0): 78%
Percent Growth (CAKI-1; Log10 Concentration −7.0): 99%
Percent Growth (CAKI-1; Log10 Concentration −8.0): 97%
Percent Growth (MCF7; Log10 Concentration −4.0): −59%
Percent Growth (MCF7; Log10 Concentration −5.0): 1%
Percent Growth (MCF7; Log10 Concentration −6.0): 57%
Percent Growth (MCF7; Log10 Concentration −7.0): 89%
Percent Growth (MCF7; Log10 Concentration −8.0): 90%
Percent Growth (BT-549; Log10 Concentration −4.0): −96%
Percent Growth (BT-549; Log10 Concentration −5.0): −83%
Percent Growth (BT-549; Log10 Concentration −6.0): 77%
Percent Growth (BT-549; Log10 Concentration −7.0): 93%
Percent Growth (BT-549; Log10 Concentration −8.0): 95%
Percent Growth (IGROV1; Log10 Concentration −4.0): −70%
Percent Growth (IGROV1; Log10 Concentration −5.0): 13%
Percent Growth (IGROV1; Log10 Concentration −6.0): 98%
Percent Growth (IGROV1; Log10 Concentration −7.0): 105%
Percent Growth (IGROV1; Log10 Concentration −8.0): 106%
Percent Growth (OVCAR-8; Log10 Concentration −4.0): −73%
Percent Growth (OVCAR-8; Log10 Concentration −5.0): 6%
Percent Growth (OVCAR-8; Log10 Concentration −6.0): 83%
Percent Growth (OVCAR-8; Log10 Concentration −7.0): 99%
Percent Growth (OVCAR-8; Log10 Concentration −8.0): 104%
Percent Growth (NCI/ADR-RES; Log10 Concentration −4.0): 8%
Percent Growth (NCI/ADR-RES; Log10 Concentration −5.0): 77%
Percent Growth (NCI/ADR-RES; Log10 Concentration −6.0): 105%
Percent Growth (NCI/ADR-RES; Log10 Concentration −7.0): 106%
Percent Growth (NCI/ADR-RES; Log10 Concentration −8.0): 103%
Percent Growth (SK-OV-3; Log10 Concentration −4.0): −46%
Percent Growth (SK-OV-3; Log10 Concentration −5.0): 57%
Percent Growth (SK-OV-3; Log10 Concentration −6.0): 103%
Percent Growth (SK-OV-3; Log10 Concentration −7.0): 106%
Percent Growth (SK-OV-3; Log10 Concentration −8.0): 99%
Percent Growth (DU-145; Log10 Concentration −4.0): −99%
Percent Growth (DU-145; Log10 Concentration −5.0): 13%
Percent Growth (DU-145; Log10 Concentration −6.0): 94%
Percent Growth (DU-145; Log10 Concentration −7.0): 108%
Percent Growth (DU-145; Log10 Concentration −8.0): 108%
Percent Growth (HOP-92; Log10 Concentration −4.0): −90%
Percent Growth (HOP-92; Log10 Concentration −5.0): −32%
Percent Growth (HOP-92; Log10 Concentration −6.0): 45%
Percent Growth (HOP-92; Log10 Concentration −7.0): 72%
Percent Growth (HOP-92; Log10 Concentration −8.0): 78%
Percent Growth (NCI-H226; Log10 Concentration −4.0): −50%
Percent Growth (NCI-H226; Log10 Concentration −5.0): 51%
Percent Growth (NCI-H226; Log10 Concentration −6.0): 90%
Percent Growth (NCI-H226; Log10 Concentration −7.0): 88%
Percent Growth (NCI-H226; Log10 Concentration −8.0): 88%
Percent Growth (NCI-H23; Log10 Concentration −4.0): −62%
Percent Growth (NCI-H23; Log10 Concentration −5.0): 11%
Percent Growth (NCI-H23; Log10 Concentration −6.0): 90%
Percent Growth (NCI-H23; Log10 Concentration −7.0): 103%
Percent Growth (NCI-H23; Log10 Concentration −8.0): 105%
Percent Growth (NCI-H460; Log10 Concentration −4.0): −48%
Percent Growth (NCI-H460; Log10 Concentration −5.0): 19%
Percent Growth (NCI-H460; Log10 Concentration −6.0): 98%
Percent Growth (NCI-H460; Log10 Concentration −7.0): 99%
Percent Growth (NCI-H460; Log10 Concentration −8.0): 101%
Percent Growth (NCI-H522; Log10 Concentration −4.0): −67%
Percent Growth (NCI-H522; Log10 Concentration −5.0): −62%
Percent Growth (NCI-H522; Log10 Concentration −6.0): 63%
Percent Growth (NCI-H522; Log10 Concentration −7.0): 97%
Percent Growth (NCI-H522; Log10 Concentration −8.0): 95%
